About 1,000 (0.3%) of roughly 330,000 compounds were called active. Inconclusive means that the source gave no clear call. Such entries were picked first, then a sample of the others. Calls follow the shape of the dose curve; as a rule, active = well fitted inhibition curve with a large enough effect; inconclusive = small, poorly fitted or top-dose-only effect; inactive = no such curve, though single readings can be large or run the other way; tested in mouse RAW 264.7 cells. Where the call is inconclusive, the potency comes from a doubtful curve fit.
Experiment: qHTS for Inhibitors of Cell Surface uPA Generation; also: nearly all actives have a fitted effect of over 55% in size
Settings: cell surface uPA generation assay; series mostly up to 38.3 µM
Summary of the method: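 ATP-Lite luminescence in RAW 264.7 cells after 24 h of exposure to compound, tested up to 38.3 uM final in 1:5 steps. Raised ATP reflects inhibition of uPA-dependent LF delivery to the cytoplasm.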
For `COc1ccc(-c2c(C)c3ccc(O)cc3oc2=O)cc1OC`, the Potency was inconclusive: 8.91 µM [inhibitor, single point].
With `O=C1NC(=Nc2ccccc2)S/C1=C/c1cccs1` the Potency was inconclusive: 7.08 µM [inhibitor, partial curve, poor fit].
In the case of `Cc1nc(-c2ccc(NC(=O)c3ccccc3)cc2)cs1`, the Potency is reported as active: 2.24 µM.
In the case of `O=C(c1ccc2nsnc2c1)N1CCN(c2ccc([N+](=O)[O-])cc2)CC1`, the Potency is reported as inconclusive: 11.2 µM [inhibitor, single point].
For `O=Cc1ccccc1OCc1ccc2c(c1)OCO2`, the Potency was inconclusive: 7.08 µM [inhibitor, partial curve, poor fit].
In the case of `Cc1nc2cc(-c3ccccc3)sc2c(=O)n1N`, the Potency is reported as “inactive”.
With `Cc1cc(Br)cc2c1NC(=O)C2(O)CC(=O)c1ccco1` (stereo unspecified) the Potency was “inactive”.
In the case of `CC12CCC(C(=O)Nc3nc4ccc(Br)cc4s3)(OC1=O)C2(C)C` (stereo unspecified), the Potency is reported as inconclusive: 2.51 µM [inhibitor, full curve, poor fit].
In the case of `COc1ccc(/C=N/NC(=O)c2ccc[nH]2)cc1`, the Potency is reported as inconclusive: 3.55 µM [inhibitor, partial curve, poor fit].
With `Cc1ccc(S(=O)(=O)N2C[C@@H]3CCCC[C@@H]3[C@@H](C)[C@H]2c2cn(Cc3ccccc3)c3ccccc23)cc1` the Potency was inconclusive: 5.01 µM [inhibitor, single point].
For `C/C(=N\NC(=O)Cc1ccc(Cl)cc1)c1ccccc1O`, the Potency was “inactive”.
For `C#CC[N+](C)(C)CCCCCCCC`, the Potency was inconclusive: 35.5 µM [inhibitor, partial curve, poor fit].
In the case of `O=C(N[C@H]1C/C=C\C[C@@H](CC(=O)N(CCO)Cc2ccccc2)C(=O)N[C@H](Cc2c[nH]c3ccccc23)COC1=O)OCC1c2ccccc2-c2ccccc21`, the Potency is reported as inconclusive: 12.6 µM [inhibitor, single point].
For `COC(=O)c1ccc(C23CC4(C2)[C@H](CN(Cc2cccnc2)[C@@H]4c2ccccc2)C3c2ccc(Cl)nc2)cc1` (stereo partly specified), the Potency was inconclusive: 11.2 µM [inhibitor, partial curve, poor fit].
In the case of `Cc1cc(C(c2nnnn2Cc2ccccc2)N2CCOCC2)c(C)n1-c1ccc2c(c1)OCO2` (stereo unspecified), the Potency is reported as inconclusive: 8.91 µM [inhibitor, partial curve, poor fit].
With `CC1(C2CC2)NC(=O)N(CC(=O)Nc2cc(S(=O)(=O)N3CCCCC3)ccc2Cl)C1=O` (stereo unspecified) the Potency was inconclusive: 12.6 µM [inhibitor, single point].
With `COC(=O)c1c(NC(=O)c2ccco2)sc(C(=O)Nc2ccc(F)cc2)c1C` the Potency was “inactive”.
For `O=C(NCc1ccco1)c1cnccn1`, the Potency was “inactive”.
For `CCCC(NCC(=O)Nc1cc(S(=O)(=O)N2CCOCC2)ccc1OC)c1ccccc1` (stereo unspecified), the Potency was inconclusive: 1 µM [inhibitor, full curve, poor fit].
In the case of `CC(C)C[C@H]1CN=C(Nc2ccccc2)N1CCc1cccc(F)c1`, the Potency is reported as inconclusive: 1.12 µM [inhibitor, full curve, poor fit].
With `CCCCN(CC)C(=O)c1cc2c(=O)n3cccc(C)c3nc2s1` the Potency was “inactive”.
For `N=c1c2c(n(Cc3cccc(Cl)c3)c3c1CCC3)CCCC2`, the Potency was inconclusive: 7.08 µM [inhibitor, partial curve].
With `Cc1ccccc1NC(=O)CSc1nc2cc3c(cc2cc1C)CCC3` the Potency was inconclusive: 0.891 µM [inhibitor, full curve, poor fit].
In the case of `O=C(/C=C/c1cccc(Br)c1)NCc1ccncc1`, the Potency is reported as “inactive”.
For `O=C(N/C(=C/c1ccc(Br)cc1)C(=O)N1CCCC1=O)c1ccco1`, the Potency was inconclusive: 22.4 µM [inhibitor, single point].
In the case of `CC1(C)Cc2c(sc(NC(=O)c3ccco3)c2C(=O)O)CO1`, the Potency is reported as inconclusive: 3.98 µM [inhibitor, partial curve].
For `Cc1cc(C)c(CN2CCN(C(=O)Cn3cnc4c(OCc5ccccc5)ncnc43)CC2)c(C)c1`, the Potency was inconclusive: 28.2 µM [inhibitor, single point].
With `Cc1nn2cc(-c3ccccc3)nc2s1` the Potency was inconclusive: 3.16 µM [inhibitor, partial curve, poor fit].
With `COc1ccccc1NC(=O)C(C)OC(=O)CCC1CCCCC1` (stereo unspecified) the Potency was “inactive”.
In the case of `O=c1cc(CN2CCOCC2)c2ccc(O)c(O)c2o1`, the Potency is reported as “inactive”.
With `CCc1ccc(-c2nc(CN3CCC(C(=O)NCc4ccccc4OC)CC3)c(C)o2)cc1` the Potency was “inactive”.
With `COc1ccc(C(=O)NC(=S)NNC(=O)c2cccnc2)cc1` the Potency was “inactive”.
In the case of `Cc1cccc2c1-c1sc(C(=O)N3CCc4ccccc4C3)cc1CO2`, the Potency is reported as inconclusive: 12.6 µM [inhibitor, single point].
For `COc1ccc(/C=C(/C(=O)N2CCCCC2C(=O)O)c2ccc(OC)c(OC)c2)cc1` (stereo unspecified), the Potency was “inactive”.
For `Clc1ccc(-c2csc(N/N=C\c3cccnc3)n2)cc1`, the Potency was “inactive”.
For `COc1ccc(-c2n[nH]c(C)c2-c2ccc(Cl)cc2)c(O)c1`, the Potency was “inactive”.
With `O=C(CC(=O)Nc1ccccc1[N+](=O)[O-])Nc1ccccc1[N+](=O)[O-]` the Potency was “inactive”.
For `COc1cc(C(=O)O/N=C(\N)c2ccccn2)cc(OC)c1OC`, the Potency was inconclusive: 5.62 µM [inhibitor, partial curve, poor fit].
In the case of `CC1CC(C)CN(CCCNC(=O)c2cc3c(s2)-c2ccccc2OC3)C1` (stereo unspecified), the Potency is reported as inconclusive: 12.6 µM [inhibitor, single point].
With `C#CCOCCOCCOCCNc1nc(N2CCN(C(=O)CCCCCCCCCCNC(=O)[C@H](CCC(=O)O)n3cc(CCCCCN)nn3)CC2)nc(N2CCN(C(=O)CCCCCCCCCCNC(=O)[C@@H]([C@H](C)O)n3cc(C)nn3)CC2)n1` the Potency was “inactive”.
With `COC(=O)c1ccc(N2CCN(CC(=O)c3ccc(C)cc3)CC2)c([N+](=O)[O-])c1` the Potency was inconclusive: 2.82 µM [inhibitor, single point].
In the case of `O[C@@H]1CN(Cc2ccc(-n3cccn3)cc2)CC[C@H]1N1CCN(c2ccccc2F)CC1`, the Potency is reported as inconclusive: 10 µM [inhibitor, partial curve, poor fit].
In the case of `NC(=S)N/N=C/c1ccccc1OC(=O)/C=C/c1ccccc1`, the Potency is reported as inconclusive: 12.6 µM [inhibitor, single point].
In the case of `O=C(/C=C/c1ccc([N+](=O)[O-])cc1)c1cccnc1`, the Potency is reported as inconclusive: 12.6 µM [inhibitor, single point].
For `CC(=NCc1ccco1)c1c(C)[nH]n(-c2nc3ccccc3s2)c1=O`, the Potency was inconclusive: 1 µM [inhibitor, full curve].
In the case of `Cc1ccc(C(=O)N2CCCC(N3CCN(c4cccc(C(F)(F)F)c4)CC3)C2)s1` (stereo unspecified), the Potency is reported as inconclusive: 12.6 µM [inhibitor, single point].
In the case of `CC(=O)N[C@@H](C)c1nc2ccccc2n1CCCN1CCN(c2nc(-c3ccc(C)cc3)cs2)CC1`, the Potency is reported as inconclusive: 11.2 µM [inhibitor, partial curve].
In the case of `CC(Cc1ccc(O)c(O)c1)C(C)Cc1ccc(O)c(O)c1` (stereo unspecified), the Potency is reported as inconclusive: 2 µM [inhibitor, full curve, poor fit].
In the case of `O=C(O)c1cccc(S(=O)(=O)Nc2cc(Cl)ccc2Cl)c1`, the Potency is reported as “inactive”.
With `CCOc1ccc(CN(C)C(=O)CCc2ccc(S(=O)(=O)N3CCCCCC3)cc2)cc1` the Potency was inconclusive: 12.6 µM [inhibitor, single point].
With `CC1(C)CC(=O)CC(C2(O)C(=O)N(Cc3ccccc3)c3ccccc32)O1` (stereo unspecified) the Potency was inconclusive: 28.2 µM [inhibitor, single point].
With `Cc1cccc2nc(-c3cccnc3)c(Nc3ccccc3)n12` the Potency was “inactive”.
For `NC(=O)CC(NC(=O)c1ccc(Br)cc1)c1ccc(N2CCC(Br)CC2)c([N+](=O)[O-])c1` (stereo unspecified), the Potency was inconclusive: 12.6 µM [inhibitor, single point].
For `Fc1ccc(-[n+]2nc(Nc3ccccc3)sc2-c2c3ccccc3cc3ccccc23)cc1`, the Potency was inconclusive: 25.1 µM [inhibitor, single point].
With `COc1ccccc1NC(=S)NCc1cccs1` the Potency was “inactive”.
For `Cc1ccc2cccc(N=Cc3c(C)[nH]n(-c4ccccc4)c3=O)c2n1`, the Potency was “inactive”.
With `N/C(Cc1ccc(Cl)cc1)=N\OC(=O)Cc1ccc([N+](=O)[O-])cc1` the Potency was inconclusive: 20 µM [inhibitor, single point].
With `CCOC(=O)c1sc(NC(=O)c2c(OC)cccc2OC)nc1C` the Potency was “inactive”.
In the case of `O=C(O)c1cc(/C=C/C(=O)c2cc(F)ccc2O)c2c(c1)COCO2`, the Potency is reported as inconclusive: 12.6 µM [inhibitor, single point].
For `O=C(N/N=C/c1ccc(F)cc1)c1cc(-c2ccccn2)nc2ccccc12`, the Potency was inconclusive: 6.31 µM [inhibitor, partial curve, poor fit].
In the case of `Oc1ccc(/C=N/Nc2nc(-c3ccccc3F)nc3ccccc23)c(O)c1`, the Potency is reported as inconclusive: 11.2 µM [inhibitor, single point].
With `COc1ccc(C)c(-n2c(=O)n(Cc3ccccc3)c(=O)c3[nH]cnc32)c1` the Potency was inconclusive: 0.891 µM [inhibitor, partial curve, poor fit].
With `Cc1nc(SCC(=O)N(C)C2CCS(=O)(=O)C2)c2ccccc2n1` (stereo unspecified) the Potency was inconclusive: 3.98 µM [inhibitor, partial curve, poor fit].
For `COc1cccc(CN2CCN(CCc3ccccc3)C(CCO)C2)c1OC` (stereo unspecified), the Potency was inconclusive: 0.355 µM [inhibitor, full curve, poor fit].
For `COC(=O)C(Cc1c[nH]c2ccccc12)NC(=O)c1ccccc1Br` (stereo unspecified), the Potency was inconclusive: 11.2 µM [inhibitor, single point].
With `O=C1CC(c2cccc(Cl)c2)c2cc3c(cc2N1)CCC3` (stereo unspecified) the Potency was inconclusive: 1.26 µM [inhibitor, full curve].
Potency is read from the fitted curve at half-maximal effect.
